Reference: the supplement of paper PMC4604168 (melanoma cell lines)
This is one part of the list. Many values rest on one well or one pass, so single values are uncertain.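 The apoptosis fraction was the count of cleaved-PARP antibody-stained nuclei relative to all DNA-stained nuclei, imaged in 1,536-well plates. Screening doses were set so most cells survived, and baseline and induced cleaved-PARP levels vary greatly across cell lines.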

How the values were obtained:
Assay in all cases: cleaved PARP positive nuclei fraction relative to DMSO control; melanoma cells; higher = more apoptosis
Settings in all cases: library dose: low library concentration; 72 h
MZ2-MEL = system: MZ2-MEL
MeWo = system: MeWo
RPMI7951 = system: RPMI7951
RVH-421 = system: RVH-421
SkMel28 = system: SkMel28
SkMel2 = system: SkMel2
SkMel30 = system: SkMel30
UACC62 = system: UACC62
WM115 = system: WM115
WM1716 = system: WM1716
WM1745 = system: WM1745
WM3526 = system: WM3526
WM3619 = system: WM3619
WM451Lu = system: WM451Lu
SkMel5 = system: SkMel5
UACC257 = system: UACC257

| SMILES | cleaved PARP positive nuclei fraction (MZ2-MEL) [%] | cleaved PARP positive nuclei fraction (MeWo) [%] | cleaved PARP positive nuclei fraction (RPMI7951) [%] | cleaved PARP positive nuclei fraction (RVH-421) [%] | cleaved PARP positive nuclei fraction (SkMel28) [%] | cleaved PARP positive nuclei fraction (SkMel2) [%] | cleaved PARP positive nuclei fraction (SkMel30) [%] | cleaved PARP positive nuclei fraction (UACC62) [%] | cleaved PARP positive nuclei fraction (WM115) [%] | cleaved PARP positive nuclei fraction (WM1716) [%] | cleaved PARP positive nuclei fraction (WM1745) [%] | cleaved PARP positive nuclei fraction (WM3526) [%] | cleaved PARP positive nuclei fraction (WM3619) [%] | cleaved PARP positive nuclei fraction (WM451Lu) [%] | cleaved PARP positive nuclei fraction (SkMel5) [%] | cleaved PARP positive nuclei fraction (UACC257) [%] |
| --- | --- | --- | --- | --- | --- | --- | --- | --- | --- | --- | --- | --- | --- | --- | --- | --- |
| CCCS(=O)(=O)Nc1ccc(F)c(C(=O)c2c[nH]c3ncc(Cl)cc23)c1F + COc1ccc(Cl)c(Nc2nc3ccccc3nc2NS(=O)(=O)c2cccc(NC(=O)C(C)(C)N)c2)c1 [XL147] (first compound 0.08 µM, partner dose 0.8 µM) | 50.4 | 122 | 161 | 74.5 | 113 | 101 | 67.8 | 401 | 180 | 31.9 | 103 | 42.5 | 126 | 45.2 | – | – |
| CNC(=O)c1cc(Oc2ccc(NC(=O)Nc3ccc(Cl)c(C(F)(F)F)c3)cc2)ccn1 [sorafenib] + C#Cc1cccc(Nc2ncnc3cc(OCCOC)c(OCCOC)cc23)c1 [erlotinib] (first compound 0.4 µM, partner dose 0.8 µM) | 74.6 | 63.9 | 164 | 38.3 | 43.3 | 80.1 | 33.5 | 204 | 133 | 105 | 142 | 89.5 | 83.5 | 117 | – | – |
| C[C@@H](Oc1cc(-c2cnn(C3CCNCC3)c2)cnc1N)c1c(Cl)ccc(F)c1Cl [Crizotinib] + Cc1nc(Nc2ncc(C(=O)Nc3c(C)cccc3Cl)s2)cc(N2CCN(CCO)CC2)n1 [dasatanib] (first compound 0.2 µM, partner dose 0.004 µM) | 65.8 | 61.5 | 260 | 152 | 134 | 116 | 140 | 229 | 181 | 73.7 | 123 | 89.9 | 105 | 55.3 | – | – |
| C=C(c1ccc(C(=O)O)cc1)c1cc2c(cc1C)C(C)(C)CCC2(C)C [Bexarotene] + Clc1ccc(Nc2nnc(Cc3ccncc3)c3ccccc23)cc1 [vatalanib] (first compound 2 µM, partner dose 2 µM) | 88.9 | 101 | 106 | 54.1 | 109 | 43.9 | 61.7 | 81 | 55.3 | 77.8 | 91.6 | 86.9 | 99.1 | 29.7 | – | – |
| CN1CCN(c2ccc3nc(-c4c(N)c5c(F)cccc5[nH]c4=O)[nH]c3c2)CC1 [Dovitinib] + Nc1nc(F)nc2c1ncn2[C@@H]1O[C@H](CO)[C@@H](O)[C@@H]1O [fludarabine] (first compound 0.1 µM, partner dose 0.2 µM) | 71 | 308 | 120 | 124 | 162 | 290 | 820 | 119 | 134 | 111 | 98.7 | 125 | 104 | 387 | – | – |
| C[C@@H](Oc1cc(-c2cnn(C3CCNCC3)c2)cnc1N)c1c(Cl)ccc(F)c1Cl [Crizotinib] + Cn1nnc2c(C(N)=O)ncn2c1=O [temozolomide] (first compound 0.2 µM, partner dose 2 µM) | 158 | 97.1 | 106 | 97.8 | 46.2 | 109 | 112 | 25.9 | 68.3 | 72 | 104 | 34.8 | 80 | 75 | – | – |
| CN1CCN(c2ccc3nc(-c4c(N)c5c(F)cccc5[nH]c4=O)[nH]c3c2)CC1 [Dovitinib] + O=C(O)c1ccc2c(c1)nc(Nc1cccc(Cl)c1)c1ccncc12 [CX4945] (first compound 0.1 µM, partner dose 0.4 µM) | 241 | 185 | 202 | 105 | 535 | 36.6 | 317 | 88.9 | 170 | 62.4 | 115 | 154 | 99.8 | 47.7 | – | – |
| C=C(c1ccc(C(=O)O)cc1)c1cc2c(cc1C)C(C)(C)CCC2(C)C [Bexarotene] + Nc1nc(F)nc2c1ncn2[C@@H]1O[C@H](CO)[C@@H](O)[C@@H]1O [fludarabine] (first compound 2 µM, partner dose 0.2 µM) | 142 | 303 | 220 | 53.2 | 50.8 | 280 | 801 | 95 | 65 | 38.3 | 108 | 518 | 88.6 | 140 | – | – |
| Nc1nc(F)nc2c1ncn2[C@@H]1O[C@H](CO)[C@@H](O)[C@@H]1O [fludarabine] + C=CCNC1=C2C[C@@H](C)C[C@H](OC)[C@H](O)[C@@H](C)/C=C(\C)[C@H](OC(N)=O)[C@@H](OC)/C=C\C=C(/C)C(=O)NC(=CC1=O)C2=O [Tanespimycin] (first compound 0.2 µM, partner dose 0.002 µM) | 198 | 471 | 160 | 137 | 41.8 | 799 | 4230 | 32.7 | 158 | 146 | 104 | 134 | 102 | 560 | – | – |
| CO[C@H]1C[C@@H]2CC[C@@H](C)[C@@](O)(O2)C(=O)C(=O)N2CCCC[C@H]2C(=O)O[C@H]([C@H](C)C[C@@H]2CC[C@@H](OCCO)[C@H](OC)C2)CC(=O)[C@H](C)/C=C(\C)[C@@H](O)[C@@H](OC)C(=O)[C@H](C)C[C@H](C)/C=C/C=C/C=C/1C [everolimus] + O=C1NC(=O)/C(=C/c2ccc(-c3ccc(F)cc3O)o2)S1 [AS252424] (first compound 0.02 µM, partner dose 1 µM) | 104 | 313 | 50.7 | 69.3 | 303 | – | 65.6 | 92 | 108 | 68.7 | 101 | 116 | 137 | 66.4 | 64.2 | 189 |
| CNC(=O)c1cc(Oc2ccc(NC(=O)Nc3ccc(Cl)c(C(F)(F)F)c3)cc2)ccn1 [sorafenib] + Cc1nc(Nc2ncc(C(=O)Nc3c(C)cccc3Cl)s2)cc(N2CCN(CCO)CC2)n1 [dasatanib] (first compound 0.4 µM, partner dose 0.004 µM) | 132 | 91.9 | 37.1 | 117 | 115 | 68.6 | 84.1 | 58.4 | 164 | 46.2 | 266 | 40.2 | 98.3 | 109 | – | – |
| CCCS(=O)(=O)Nc1ccc(F)c(C(=O)c2c[nH]c3ncc(Cl)cc23)c1F + C=CCNC1=C2C[C@@H](C)C[C@H](OC)[C@H](O)[C@@H](C)/C=C(\C)[C@H](OC(N)=O)[C@@H](OC)/C=C\C=C(/C)C(=O)NC(=CC1=O)C2=O [Tanespimycin] (first compound 0.08 µM, partner dose 0.002 µM) | 106 | 41 | 235 | 109 | 231 | 384 | 51.7 | 50.9 | 168 | 224 | 95.3 | 117 | 84.1 | 23.9 | – | – |
| CN1CCN(c2ccc3nc(-c4c(N)c5c(F)cccc5[nH]c4=O)[nH]c3c2)CC1 [Dovitinib] + Cc1nc(Nc2ncc(C(=O)Nc3c(C)cccc3Cl)s2)cc(N2CCN(CCO)CC2)n1 [dasatanib] (first compound 0.1 µM, partner dose 0.004 µM) | 257 | 87.1 | 587 | 43.6 | 111 | 272 | 224 | 119 | 199 | 455 | 135 | 196 | 78.9 | 129 | – | – |
| Nc1ncn([C@H]2C[C@H](O)[C@@H](CO)O2)c(=O)n1 [decitabine] + COCC[n+]1c2c(n(Cc3cnccn3)c1C)C(=O)c1ccccc1C2=O [YM155] (first compound 0.1 µM, partner dose 0.0004 µM) | 200 | 130 | 159 | 123 | 102 | 109 | 200 | 101 | 261 | 110 | 105 | 25.9 | 114 | 105 | – | – |
| CS(=O)(=O)CCNCc1ccc(-c2ccc3ncnc(Nc4ccc(OCc5cccc(F)c5)c(Cl)c4)c3c2)o1 [lapatinib] + CCCS(=O)(=O)Nc1ccc(F)c(C(=O)c2c[nH]c3ncc(Cl)cc23)c1F [PLX4720] (first compound 0.8 µM, partner dose 0.08 µM) | 100 | 119 | 95.3 | 47.5 | 79.7 | 89.4 | 62.6 | 209 | 87.9 | 128 | 96.8 | 75.3 | 92.6 | 73.4 | – | – |
| Nc1ncn([C@H]2C[C@H](O)[C@@H](CO)O2)c(=O)n1 [decitabine] + Clc1ccc(Nc2nnc(Cc3ccncc3)c3ccccc23)cc1 [vatalanib] (first compound 0.1 µM, partner dose 2 µM) | 101 | 138 | 66.9 | 97.5 | 189 | 65.7 | 107 | 140 | 150 | 89.7 | 127 | 276 | 102 | 66.9 | – | – |

Some values from the entries so far.
CN1CCN(c2ccc3nc(-c4c(N)c5c(F)cccc5[nH]c4=O)[nH]c3c2)CC1 [Dovitinib] + Nc1nc(F)nc2c1ncn2[C@@H]1O[C@H](CO)[C@@H](O)[C@@H]1O [fludarabine] (first compound 0.1 µM, partner dose 0.2 µM) | cleaved PARP positive nuclei fraction (SkMel30) [%]: 820
C=C(c1ccc(C(=O)O)cc1)c1cc2c(cc1C)C(C)(C)CCC2(C)C [Bexarotene] + Nc1nc(F)nc2c1ncn2[C@@H]1O[C@H](CO)[C@@H](O)[C@@H]1O [fludarabine] (first compound 2 µM, partner dose 0.2 µM) | cleaved PARP positive nuclei fraction (SkMel30) [%]: 801
